One test concerns the target T1, Myc-USP45 (human) (UniProt Q70EL2).
T1 sequence: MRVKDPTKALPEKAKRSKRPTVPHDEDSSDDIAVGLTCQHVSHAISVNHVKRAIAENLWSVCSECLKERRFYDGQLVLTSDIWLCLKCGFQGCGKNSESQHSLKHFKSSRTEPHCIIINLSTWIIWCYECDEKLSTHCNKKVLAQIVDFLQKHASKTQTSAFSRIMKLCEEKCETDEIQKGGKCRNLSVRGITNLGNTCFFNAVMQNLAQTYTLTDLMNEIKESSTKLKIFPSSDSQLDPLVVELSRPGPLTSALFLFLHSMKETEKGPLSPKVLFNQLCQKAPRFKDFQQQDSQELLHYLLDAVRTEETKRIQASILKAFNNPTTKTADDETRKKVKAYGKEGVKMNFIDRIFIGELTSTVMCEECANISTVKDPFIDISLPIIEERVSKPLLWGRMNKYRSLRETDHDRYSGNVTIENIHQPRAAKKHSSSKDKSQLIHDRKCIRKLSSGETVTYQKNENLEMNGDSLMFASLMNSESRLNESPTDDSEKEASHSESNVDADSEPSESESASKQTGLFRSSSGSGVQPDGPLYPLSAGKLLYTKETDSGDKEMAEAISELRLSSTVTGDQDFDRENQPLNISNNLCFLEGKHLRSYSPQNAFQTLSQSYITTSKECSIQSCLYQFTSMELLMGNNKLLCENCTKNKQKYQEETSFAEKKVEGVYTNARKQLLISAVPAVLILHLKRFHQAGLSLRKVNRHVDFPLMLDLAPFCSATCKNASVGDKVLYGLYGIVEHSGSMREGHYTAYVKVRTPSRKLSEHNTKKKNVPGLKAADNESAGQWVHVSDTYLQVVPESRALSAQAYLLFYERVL
Briefly: co-IP; HEK293T cells expressing Myc-USP45 and Flag-Coro1B or Flag-Coro1C; IP with anti-Myc antibody and protein G-Sepharose, Western blot; lysis buffer 50 mM Tris-HCl pH 7.4, 150 mM NaCl, 1 mM EDTA, 10% glycerol, 1% Triton X-100. (In western blotting, separated proteins are transferred to a membrane and probed.)

Protein sequences, listed by entry. Tags and fused reporters are not part of them.
UniProt Q9BR76: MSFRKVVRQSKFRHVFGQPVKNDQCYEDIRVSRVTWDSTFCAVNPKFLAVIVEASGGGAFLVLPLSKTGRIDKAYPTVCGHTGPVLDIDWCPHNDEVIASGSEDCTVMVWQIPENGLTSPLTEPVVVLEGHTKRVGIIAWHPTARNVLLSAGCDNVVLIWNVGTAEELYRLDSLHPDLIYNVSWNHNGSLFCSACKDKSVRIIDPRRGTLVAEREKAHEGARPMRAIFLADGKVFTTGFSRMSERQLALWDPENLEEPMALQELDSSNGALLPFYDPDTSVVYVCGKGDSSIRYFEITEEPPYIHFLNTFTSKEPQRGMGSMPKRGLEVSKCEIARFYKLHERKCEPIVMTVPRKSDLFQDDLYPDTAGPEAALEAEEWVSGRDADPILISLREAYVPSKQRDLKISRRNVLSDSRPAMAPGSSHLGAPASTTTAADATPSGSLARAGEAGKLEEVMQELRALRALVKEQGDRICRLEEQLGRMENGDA
UniProt Q9ULV4: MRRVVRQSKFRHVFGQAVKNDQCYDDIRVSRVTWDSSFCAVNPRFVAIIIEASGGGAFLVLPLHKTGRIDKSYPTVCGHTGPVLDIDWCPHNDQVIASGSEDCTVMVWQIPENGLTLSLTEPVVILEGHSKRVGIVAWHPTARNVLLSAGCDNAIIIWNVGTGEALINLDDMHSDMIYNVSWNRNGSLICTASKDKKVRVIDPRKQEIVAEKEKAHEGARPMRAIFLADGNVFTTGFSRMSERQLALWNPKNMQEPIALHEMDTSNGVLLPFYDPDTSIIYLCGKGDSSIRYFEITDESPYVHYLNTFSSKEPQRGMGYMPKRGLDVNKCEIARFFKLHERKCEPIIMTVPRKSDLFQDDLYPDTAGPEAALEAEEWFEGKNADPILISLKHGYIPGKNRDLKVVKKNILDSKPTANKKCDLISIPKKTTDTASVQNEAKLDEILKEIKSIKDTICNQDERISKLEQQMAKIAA

A further test has as its target Flag-Coro1B (UniProt Q9BR76). Briefly: co-IP; IP of Flag-Coro1B with Flag antibody, Western blot for Myc-USP45 or endogenous USP45; lysis buffer 50 mM Tris-HCl pH 7.4, 150 mM NaCl, 1 mM EDTA, 10% glycerol, 1% Triton X-100.

Results are given in words; binding and its absence hold for the method and conditions named. Binding seen in cells or lysates may run through a third protein. Some entries that bind do so weakly or less than the wild type. Where a sequence is shown, tags or fusion partners need not be part of it.

In the case of Flag-Coro1B (from UniProt Q9BR76 1-489), in the test with Myc-USP45 (human), the binding entry was “binds”.
Consider Flag-Coro1C (from UniProt Q9ULV4 1-474), for which the binding entry in the test with Myc-USP45 (human) is “no binding”.

B1: Myc-USP45 (enzyme, UniProt Q70EL2 1-814)
chain: T1 sequence
On to B1, for which the binding entry with Flag-Coro1B is “binds”.

B2: endogenous USP45 (enzyme, UniProt Q70EL2 1-814)
chain: T1 sequence
As for B2, the binding entry with Flag-Coro1B is reported as “binds”.
